Measurements: paper PMC6736559
No constants are given. Whether binding was seen depends on the method and setting. Binding seen in cells or lysates may run through a third protein. For some of these results: Binding can be weak; no strength is given. Tags and fused reporters may be left off the sequences shown.

Key:
[1] = target: T1, Myc-tagged mouse stimulator of interferon gene (MmSTING) (mouse) (UniProt Q3TBT3); assay: condition: only after stimulation of the cells with HMW poly(I:C) (1 ug/ml, 6 h); co-IP; as a1, but cells stimulated with 1 ug/ml HMW poly(I:C) for 6 h instead of poly(dA:dT); anti-Myc immunoprecipitation, blot with anti-Flag and anti-Myc
T1 sequence: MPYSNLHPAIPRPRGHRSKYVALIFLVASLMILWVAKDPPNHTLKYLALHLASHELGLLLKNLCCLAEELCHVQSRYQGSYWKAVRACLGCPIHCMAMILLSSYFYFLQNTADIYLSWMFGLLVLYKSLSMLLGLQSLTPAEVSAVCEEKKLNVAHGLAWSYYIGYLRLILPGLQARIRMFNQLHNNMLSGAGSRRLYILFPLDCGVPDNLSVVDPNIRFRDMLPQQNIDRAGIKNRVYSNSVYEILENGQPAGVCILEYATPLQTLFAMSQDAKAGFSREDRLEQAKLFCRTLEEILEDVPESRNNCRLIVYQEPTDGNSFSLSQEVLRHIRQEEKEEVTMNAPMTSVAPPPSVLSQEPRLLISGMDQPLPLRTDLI

[2] = target: T1, Myc-tagged mouse stimulator of interferon gene (MmSTING) (mouse); assay: co-IP; HEK293T co-transfected with Flag- and Myc-tagged expression plasmids for 24 h, then stimulated with 1 ug/ml poly(dA:dT) for 6 h; lysed in homo buffer with protease inhibitors, sonicated; lysate immunoprecipitated with anti-Myc overnight at 4 C, protein A sepharose 4 h at 4 C, washed 3 times with PBS; blot with anti-Flag and anti-Myc

Substance	binding [1]	binding [2]
Flag-tagged DEADc domain of PmDDX41 (DeadPm) (Penaeus monodon) (domain or fragment)	no binding	binds
Flag-tagged full-length PmDDX41 (Penaeus monodon)	no binding	binds
